# In the supplement of paper PMC8166895:
# “And” between values parts separate entries of the source, which are not always exact repeats. Equal entries are not always repeated. Structures can show the parent of a compound that is named as a salt. This is one part of the list. Most entries show no effect beyond the scatter of the controls.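 A single-replicate pilot screen of approved drugs and clinical or known-target compounds measured melting temperature via differential scanning fluorimetry. Top stabilizing hits raised the melting point by 2 °C or more; negative shifts indicate destabilization.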
# System: SARS-CoV-2 main protease (Mpro, nsp5)
# Assay: thermal shift ΔTm of Mpro relative to plate average Tm; higher = stronger thermal stabilization of Mpro (binding)
# Conditions: 10 µM; protein concentration 1 µM
row,Compound,thermal shift ΔTm of Mpro
1,CCC(CC)n1ccc2c(C(=O)NCc3c(C)cc(C)[nH]c3=O)cc(C#N)cc21,-0.114 °C
2,N#Cc1nn(-c2c(Cl)cc(C(F)(F)F)cc2Cl)c(N)c1[S+]([O-])C(F)(F)F (configuration not stated) [Fipronil],0.16 °C
3,COc1ccc2[nH]c([S+]([O-])Cc3ncc(C)c(OC)c3C)nc2n1 (configuration not stated) [Tenatoprazole],-1.09 °C
4,CCOC(=O)CCNc1cc(N2CCc3ccccc3CC2)nc(-c2ccccn2)n1,-0.102 °C
5,CN1CCN(C(=O)C2C(C(=O)O)[C@H]3CC[C@@H]2O3)CC1 (some centres not stated),-0.0726 °C
6,CN(C)CCOC(c1ccccc1)c1ccccc1 [Diphenhydramine HCl],0.075 °C
7,Cc1cc(=O)oc2c(C=O)c(O)ccc12,-0.00868 °C
8,CC(=O)[C@H]1CC[C@H]2[C@@H]3CCC4=CC(=O)CC[C@]4(C)[C@H]3CC[C@]12C [Progesterone],-0.0859 °C
9,Cn1cc(CNCC2CCN(c3ncc(C(=O)NO)cn3)CC2)c2ccccc21,0.206 °C
10,Cn1cc(CNCC2CCN(c3ncc(C(=O)NO)cn3)CC2)c2ccccc21 [Quisinostat],0.0106 °C
11,O=P(O)(NCCCl)NCCCl [Palifosfamide],-0.0831 °C
12,CN(C)CC/C=C1/c2ccccc2Sc2ccc(Cl)cc21 [Chlorprothixene],-0.0143 °C
13,CN1CCN(Cc2ccc(NC(=O)Cc3ccc(Oc4cc(NC(=O)C5CC5)ncn4)cc3)cc2C(F)(F)F)CC1,-0.0715 °C
14,C1=Cc2ccccc2Nc2ccccc21 [Iminostilbene],-0.194 °C
15,COc1cc(-c2cn(C)c(=O)c3cnccc23)cc(OC)c1CN(C)C,0.00184 °C
16,CCOC(=O)C1=C[C@@H](OC(CC)CC)[C@H](NC(C)=O)[C@@H](N)C1 [Oseltamivir phosphate],-0.0194 °C
17,C[C@]12CCC(=O)C=C1CC[C@@H]1[C@@H]2[C@@H](O)C[C@@]2(C)[C@H]1CC[C@]2(O)C(=O)CO [Hydrocortisone],-0.206 °C
18,C=CC(=O)Nc1cccc(C)c1Nc1ncc2cc(-c3c(Cl)c(OC)cc(OC)c3Cl)ccc2n1,-0.134 °C
19,N[C@@H](CSCCB(O)O)C(=O)O,0.0208 °C
20,COc1ccccc1C(=O)Nc1cc2c(cc1N1CCCC1)n(C)c(=O)n2C,0.161 °C
21,O=C(CCc1ccc(O)cc1)c1c(O)cc(O)cc1O[C@@H]1O[C@H](CO)[C@@H](O)[C@H](O)[C@H]1O [Phlorizin],-0.164 °C

# Part of the list above, with bars between the fields:
row | Compound | thermal shift ΔTm of Mpro
6 | CN(C)CCOC(c1ccccc1)c1ccccc1 [Diphenhydramine HCl] | 0.075 °C
7 | Cc1cc(=O)oc2c(C=O)c(O)ccc12 | -0.00868 °C

# Continued:

row,Compound,thermal shift ΔTm of Mpro
1,Oc1ncnc2[nH]ncc12 [Allopurinol],0.0245 °C
2,CN(N=O)C(=O)NC1C(O)OC(CO)C(O)C1O (configuration not stated) [Streptozotocin (STZ)],0.227 °C
3,CC(=O)c1ccc(O)cc1 [Piceol],-0.0331 °C
4,C=C[C@]1(C)C[C@@H](OC(=O)CS[C@@H]2C[C@H]3CC[C@@H](C2)N3C)[C@]2(C)[C@H](C)CC[C@]3(CCC(=O)[C@H]32)[C@@H](C)[C@@H]1O [Retapamulin],0.0526 °C
5,COCc1c(-c2ccc(NC(=O)Nc3cc(C(F)(F)F)ccc3F)c(F)c2)c2c(N)ncnn2c1CN1CCOCC1,-0.195 °C
6,CO/N=C(\C(=O)N[C@@H]1C(=O)N2C(C(=O)OCOC(=O)C(C)(C)C)=C(/C=C\c3scnc3C)CS[C@H]12)c1csc(N)n1 [Cefditoren Pivoxil],0.00186 °C
7,CCC(=O)N1CCN(c2ccc(-n3c(=O)ccc4cnc5ccc(-c6cnc7ccccc7c6)cc5c43)cc2C(F)(F)F)CC1 [Torin 1],-0.0294 °C
8,Cn1cnc(-c2cc3nccc(Oc4ccc(NC(=S)NC(=O)Cc5ccccc5)cc4F)c3s2)c1,0.449 °C
9,Cc1onc(-c2ccccc2)c1-c1ccc(S(N)(=O)=O)cc1 [Valdecoxib],0.0975 °C
10,CCCc1cc(=O)[nH]c(=S)[nH]1 [Propylthiouracil],0.144 °C
11,C=C1C(=O)O[C@@H]2/C=C(\C)CC/C=C(\C)CC[C@@H]12 [Costunolide],0.265 °C
12,O=C(Nc1ccccc1)c1cc([N+](=O)[O-])ccc1Cl,-0.0782 °C
13,O=c1cc(-c2cccc3c2Sc2ccccc2S3)oc(N2CCOCC2)c1,-0.212 °C
14,COc1ccc2cc(C(=O)O)ccc2c1 [6-Methoxy-2-naphthoic acid],0.141 °C
15,CN1CCc2c(c3ccccc3n2Cc2ccccc2)C1 [Mebhydrolin napadisylate],0.0326 °C
16,CN1CCc2c(c3ccccc3n2Cc2ccccc2)C1 [Mebhydroline],-0.158 °C
17,Fc1ccc(C(c2ccc(F)cc2)N2CCN(C/C=C/c3ccccc3)CC2)cc1 [Flunarizine 2HCl],-0.013 °C
18,C[C@H]1CCC/C=C/[C@@H]2C[C@H](O)C[C@H]2[C@H](O)/C=C/C(=O)O1 [Brefeldin A],-0.0362 °C
19,Oc1ccc([C@H]2COc3cc(O)ccc3C2)cc1 [Equol],-0.381 °C
20,Cc1ccc(Nc2c(F)cccc2Cl)c(CC(=O)O)c1 [Lumiracoxib],-0.0685 °C
21,O=C(NC1CCNCC1)[C@@H]1CC[C@@H]2CN1C(=O)N2OS(=O)(=O)O [Relebactam],0.0837 °C

# Shown with bars between the fields: entries from further up
row | Compound | thermal shift ΔTm of Mpro
19 | Oc1ccc([C@H]2COc3cc(O)ccc3C2)cc1 [Equol] | -0.381 °C
20 | Cc1ccc(Nc2c(F)cccc2Cl)c(CC(=O)O)c1 [Lumiracoxib] | -0.0685 °C
21 | O=C(NC1CCNCC1)[C@@H]1CC[C@@H]2CN1C(=O)N2OS(=O)(=O)O [Relebactam] | 0.0837 °C

# (cont.)

row,Compound,thermal shift ΔTm of Mpro
1,CC(C)n1cnc2c(NCc3ccccc3)nc(NCCCO)nc21 [Bohemine],-0.0208 °C
2,N#Cc1c(O)c2c(-c3ccc(-c4ccccc4O)cc3)csc2[nH]c1=O,-0.0693 °C
3,Cc1nc2ccc(-n3ncc(C(=O)c4cc5ccccc5[nH]4)c3N)cc2[nH]1,0.116 °C
4,CCCCC(=O)O[C@H]1CC[C@H]2[C@@H]3CCc4cc(O)ccc4[C@H]3CC[C@]12C [Estradiol valerate],0.354 °C
5,N=C(N)c1ccc(OCCCCCOc2ccc(C(=N)N)cc2)cc1 [Pentamidine],0.13 °C
6,Cc1[nH]c2ccccc2c1CCNC(=O)c1cccs1,-0.0629 °C
7,Cn1c(NCCN(CCO)CCCc2ccc([N+](=O)[O-])cc2)cc(=O)n(C)c1=O [Nifekalant hydrochloride],0.0483 °C
8,Cc1nc(Nc2cnn(C3CCNCC3)c2)nc2c1N(C)C(=O)c1cc3ccccc3cc1N2C,-0.386 °C
9,OCCOCCN1CCN(C2=Nc3ccccc3Sc3ccccc32)CC1 [Quetiapine Fumarate],-0.0955 °C
10,CCC(=O)O[C@@H](O[P@](=O)(CCCCc1ccccc1)CC(=O)N1C[C@H](C2CCCCC2)C[C@H]1C(=O)O)C(C)C [Fosinopril sodium],-0.125 °C
11,O=C(c1c2ccccc2cc2ccccc12)N1CCC(N2CCC[C@@H](C(=O)N3CCOCC3)C2)CC1,0.164 °C
12,COc1cccc2c1C(=O)c1c(O)c3c(c(O)c1C2=O)C[C@@](O)(C(=O)CO)C[C@@H]3O[C@H]1C[C@H](N)[C@H](O)[C@H](C)O1 [Doxorubicin (Adriamycin)],0.17 °C
13,Cc1cc(C(=O)NOCCO)c(Nc2ccc(I)cc2F)n(C)c1=O,-0.236 °C
14,CC1(C)S[C@@H]2[C@H](NC(=O)[C@H](N)c3ccc(O)cc3)C(=O)N2[C@H]1C(=O)O [Amoxicillin Sodium],-0.0326 °C
15,CC1(C)S[C@@H]2[C@H](NC(=O)[C@H](N)c3ccc(O)cc3)C(=O)N2[C@H]1C(=O)O [Amoxicillin],0.109 °C
16,CC1(C)S[C@@H]2[C@H](NC(=O)[C@H](N)c3ccc(O)cc3)C(=O)N2[C@H]1C(=O)O [Amoxicillin trihydrate],-0.128 °C
17,COc1cc(-c2cn(C)c(=O)c3cnccc23)c(OC)cc1CN(C)C,-0.0485 °C
18,O=C([C@@H](Cc1cccc(C(F)(F)F)c1)NS(=O)(=O)c1cc(F)c2c(c1)CCNC2)N1CCCC1,-0.382 °C
19,Cc1cccc(C(=O)O)c1O [Hydroxytoluic acid],0.133 °C
20,CCCc1cc(-c2nc(-c3ccc(C)cc3)cs2)ccn1 [Fatostatin],0.0522 °C
21,O=C(C=Cc1ccccc1)NC(NC(=S)Nc1ccc(Cl)cc1)C(Cl)(Cl)Cl (configuration not stated),1.39 °C

row,Compound,thermal shift ΔTm of Mpro
1,Cc1ccc2c(Br)cc(Br)c(OC(=O)c3ccccc3)c2n1 [Broxaldine],-0.328 °C
2,Nc1nc(Cl)nc2c1ncn2[C@H]1C[C@H](O)[C@@H](CO)O1 [Cladribine],0.226 °C
3,COC(=O)Nc1nc2cc(C(=O)c3ccccc3)ccc2[nH]1 [Mebendazole],-0.0312 °C
4,CC1(C)S[C@@H]2[C@H](NC(=O)[C@H](NC(=O)N3CCNC3=O)c3ccccc3)C(=O)N2[C@H]1C(=O)O [Azlocillin sodium salt],0.0159 °C
5,CC(C)c1ccc2oc3nc(N)c(C(=O)O)cc3c(=O)c2c1 [Amlexanox],0.115 °C
6,CCn1c2ccccc2c2cc(Nc3ccnc(NCCCN4CCOCC4)n3)ccc21,-0.357 °C
7,O=C1[C@H](Cc2ccc(O)cc2)N2C(=O)CCN(C(=O)NCc3ccccc3)[C@H]2CN1Cc1cccc2ccccc12,0.16 °C and 0.0929 °C
8,CC1=C(O)C(=O)C=C2C1=CC=C1[C@@]2(C)CC[C@@]2(C)[C@@H]3C[C@](C)(C(=O)O)CC[C@]3(C)CC[C@]12C [Celastrol],0.193 °C
9,CC(C)(O)C(Cl)(Cl)Cl [Chlorobutanol],0.218 °C
10,Cc1cc(-c2nnc(N)nc2-c2ccc(F)cc2)cc(Cl)n1,-0.0421 °C
11,Cc1cc2c(cc1S(N)(=O)=O)S(=O)(=O)CCC2 [Meticrane],-0.00985 °C
12,COCCOc1cnc2ccn([C@H](C)c3nnc4c(F)cc(-c5cnn(C)c5)cn34)c(=O)c2c1,-0.0706 °C
13,Cc1c(NC(=O)c2cc(C(N)=O)nc3cc(F)ccc23)c(C(F)(F)F)nn1Cc1ccc(C#N)cc1,-0.00333 °C
14,Oc1cccc2cccnc12 [Hydroxyquinoline],0.0459 °C
15,NCCNCCNCCNCCN [Tetraethylenepentamine Pentahydrochloride],0.256 °C
16,Clc1cnccn1 [2-Chloropyrazine],0.217 °C
17,"CC(C)OC(=O)[C@H](C)N[P@](=O)(OC[C@H]1O[C@@H](n2ccc(=O)[nH]c2=O)[C@](C)(F)[C@@H]1O)Oc1ccccc1 [Sofosbuvir (PSI-7977, GS-7977)]",-0.0447 °C
18,Nc1nc2c(ncn2[C@@H]2O[C@H](CO)[C@@H](O)[C@H]2O)c(=O)[nH]1 [Guanosine],0.0217 °C
19,CN1C(C)(C)CCCC1(C)C [Pempidine],0.0168 °C
